Assay results published in article PMC7563657.
No constants are given. Whether binding was seen depends on the method and setting. Binding seen in cells or lysates may run through a third protein. For some assays here: A result given as binding can be weak or reduced; the word gives no strength.

Tests used:
[1] = target: T1, I-kappa B Kinase α (IKKα) (mouse (endogenous in BMPC of C57BL/6 mice)) (UniProt Q60680); assay: co-IP; lysates of murine BMPC incubated with endotoxin-containing ovalbumin (50 μg/mL); indicated primary antibody (Rab5, Akt, IKKα or IKKβ) or control IgG overnight at 4 °C in RIPA buffer, Protein A/G agarose beads, Western blot; some panels also with control siRNA or DMSO, siRNA or wortmannin/Bay11-7082 pretreatment
T1 sequence: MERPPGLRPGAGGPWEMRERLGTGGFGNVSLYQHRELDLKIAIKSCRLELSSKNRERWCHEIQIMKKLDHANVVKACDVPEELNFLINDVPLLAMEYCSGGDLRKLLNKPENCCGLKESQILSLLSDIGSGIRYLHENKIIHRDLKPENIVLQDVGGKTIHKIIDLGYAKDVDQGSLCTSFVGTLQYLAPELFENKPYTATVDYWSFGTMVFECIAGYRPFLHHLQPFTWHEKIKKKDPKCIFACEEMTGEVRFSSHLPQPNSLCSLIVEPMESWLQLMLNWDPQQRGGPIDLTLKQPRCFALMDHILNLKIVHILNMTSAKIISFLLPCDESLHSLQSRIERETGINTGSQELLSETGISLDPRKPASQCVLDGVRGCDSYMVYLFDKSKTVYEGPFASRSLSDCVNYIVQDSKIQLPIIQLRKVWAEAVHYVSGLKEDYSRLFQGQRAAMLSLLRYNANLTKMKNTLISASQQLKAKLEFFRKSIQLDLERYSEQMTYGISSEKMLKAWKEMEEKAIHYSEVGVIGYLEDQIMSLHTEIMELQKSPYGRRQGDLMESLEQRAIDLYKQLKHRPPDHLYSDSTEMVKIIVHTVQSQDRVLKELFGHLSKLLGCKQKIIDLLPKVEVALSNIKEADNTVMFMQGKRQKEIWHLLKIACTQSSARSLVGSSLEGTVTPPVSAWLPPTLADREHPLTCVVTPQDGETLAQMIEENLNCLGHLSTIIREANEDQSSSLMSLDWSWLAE

[2] = target: Rab5 (mouse (endogenous in BMPC of C57BL/6 mice)); assay: as above
[3] = target: Protein kinase B (Akt) (mouse (endogenous in BMPC of C57BL/6 mice)); assay: as above
[4] = target: Rab5 (mouse (endogenous in BMPC of C57BL/6 mice)); assay: condition: only BMPC deficient (siRNA) in Akt, IKKα or IKKβ; co-IP; as a1 with Rab5 antibody, but BMPC made deficient in Akt, IKKα or IKKβ by siRNA before incubation with endotoxin-containing ovalbumin (50 μg/mL)

With Rab5 the binding [1] was “binds”.

B1: I-kappa B Kinase α (IKKα) (enzyme, UniProt Q60680 1-745)
chain: T1 sequence
With B1 the binding [2] was “binds” and the binding [3] was “binds”.

B2: phosphorylated IKKα (enzyme, UniProt Q60680 1-745)
chain: T1 sequence
modifications: phosphorylated (Ser176/180), as the detecting antibody is named
In the case of B2, the binding [2] is reported as “binds” and the binding [4] is reported as “no binding”.
